In the series the test system is human stem cell-derived cardiomyocytes.

These results are taken from patent US12571791B2, “Methods for evaluating cardiac safety of drug using cardiomyocytes derived from human stem cells” (NEXEL CO., LTD., priority 2021, dated 2026).

For `COC(=O)C1=C(C)NC(C)=C(C(=O)OC)C1c1ccccc1[N+](=O)[O-]` [Nifedipine], the “change in FPDcF (field potential duration corrected by Fridericia's formula)” value is on record as “increasing or decreasing depending on the administered concentrations”.
